Laboratory results: PubChem BioAssay AID1259254 (NCATS, 2017)
The deposit covers about 59,000 reagents; below is an unselected part. In the full data, about 1,550 (2.6%) are marked active. 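G2 share is only a proxy for re-replication; each gene was hit by three separate siRNAs, and active genes were retested.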 A number with no mark means an inactive call. Reagents against one gene are numbered here. Further read-outs or replicates are left out here. No sequences are given here. The record does not give: the amount of reagent.

- Aim: 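Genome-wide screen for genes that prevent DNA re-replication in cancer cells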 (primary screen)
- Cells: human HCT116 colorectal cancer cells
- Reagents: single siRNA against human genes
- Duration: 3 days
- Detection: 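Nuclei stained with Hoechst and imaged; cell-cycle phase assigned by DNA content; G2 share scaled per plate, non-targeting siRNA 0%, GMNN siRNA 100%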
- Direction: G2 robust z-score and G2 cells, % of GMNN control: higher = more G2 cells, more excess DNA replication
- Call rule: 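An siRNA counts as active if its G2 robust z-score lies at least 5 MADs above the screen median; here such calls match roughly 38% of GMNN control or more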

AEN #1 showed G2 robust z-score -0.0109; G2 cells, % of GMNN control 2.89.
After knock-down of AEN #2, the record shows G2 robust z-score 0.0356; G2 cells, % of GMNN control 3.22.
Depletion of AEN #3 resulted in: G2 robust z-score -0.448; G2 cells, % of GMNN control -0.187.
Knock-down of COL8A2 #1 resulted in: G2 robust z-score 4.88; G2 cells, % of GMNN control 37.3.
COL8A2 #2 scored G2 robust z-score 1.92; G2 cells, % of GMNN control 16.5.
With knock-down of COL8A2 #3 the results were G2 robust z-score 0.237; G2 cells, % of GMNN control 4.63.
Silencing of NUP58 #1 came out at: G2 robust z-score 0.963; G2 cells, % of GMNN control 9.74.
For NUP58 #2, the values are G2 robust z-score 0.0886; G2 cells, % of GMNN control 3.59.
NUP58 #3 gave G2 robust z-score 0.444; G2 cells, % of GMNN control 6.09.
After knock-down of EIF2AK3 #1 the results were G2 robust z-score 1.14; G2 cells, % of GMNN control 11.
EIF2AK3 #2 showed G2 robust z-score 0.385; G2 cells, % of GMNN control 5.67.
After knock-down of EIF2AK3 #3, the record shows G2 robust z-score -0.575; G2 cells, % of GMNN control -1.08.
For PMM2 #1 the deposit lists G2 robust z-score -0.61; G2 cells, % of GMNN control -1.32.
With knock-down of PMM2 #2 the results were G2 robust z-score -0.211; G2 cells, % of GMNN control 1.49.
With knock-down of PMM2 #3, the record shows G2 robust z-score -0.931; G2 cells, % of GMNN control -3.58.
With knock-down of PRPF4 #1, the record shows G2 robust z-score 0.219; G2 cells, % of GMNN control 4.51.
PRPF4 #2 showed G2 robust z-score 0.241; G2 cells, % of GMNN control 4.66.
PRPF4 #3 showed G2 robust z-score -0.122; G2 cells, % of GMNN control 2.11.
For SLC6A3 #1, the entry reads G2 robust z-score -0.753; G2 cells, % of GMNN control -2.33.
After knock-down of SLC6A3 #2, the record shows G2 robust z-score 4.55; G2 cells, % of GMNN control 35.
SLC6A3 #3 scored G2 robust z-score -0.44; G2 cells, % of GMNN control -0.127.
RPL7P9 #1 showed G2 robust z-score 4.28; G2 cells, % of GMNN control 33.1.
For RPL7P9 #2, the values are G2 robust z-score 1.31; G2 cells, % of GMNN control 12.2.
Against RPL7P9 #3, the values are G2 robust z-score 4.78; G2 cells, % of GMNN control 36.6.

In a second layout: 4 of the entries above.
{"gene knocked down":"PRPF4","reagent":2,"G2 robust z-score":0.241,"G2 cells, % of GMNN control":4.66}
{"gene knocked down":"PRPF4","reagent":3,"G2 robust z-score":-0.122,"G2 cells, % of GMNN control":2.11}
{"gene knocked down":"SLC6A3","reagent":1,"G2 robust z-score":-0.753,"G2 cells, % of GMNN control":-2.33}
{"gene knocked down":"SLC6A3","reagent":2,"G2 robust z-score":4.55,"G2 cells, % of GMNN control":35}
